Measurements published in the supplement of paper PMC5355238.
Counter-ions that a name gives are not always drawn. The list shows a part of the results. Most values lie at the level of the controls, where differences are scatter.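 Reh, a human leukemia cell line, is read out by flow cytometry as the median γH2AX antibody signal in S-phase cells; the score counts standard deviations from the median difference of each paired plate set. Scores above 2.5 were candidate hits; scores below -2 mark compounds lowering MK1775-induced damage.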

The molecules below were run on Reh (assay: Z' of S-phase gammaH2AX difference (drug + MK1775 minus drug alone) (Z-score); higher = stronger synergistic S-phase DNA damage with MK1775). Conditions: MK1775 concentration 400 nM; first compound 10 µM; 4 h.
In the case of CC1(C)NC(=O)N(c2ccc([N+](=O)[O-])c(C(F)(F)F)c2)C1=O [Nilutamide] + C=CCn1c(=O)c2cnc(Nc3ccc(N4CCN(C)CC4)cc3)nc2n1-c1cccc(C(C)(C)O)n1 [MK1775], the “Z' of S-phase gammaH2AX difference (Z-score)” value is reported as inactive: 0.155. In the case of Oc1c2ccccc2c2c3c(cccc13)N=N2 + C=CCn1c(=O)c2cnc(Nc3ccc(N4CCN(C)CC4)cc3)nc2n1-c1cccc(C(C)(C)O)n1 [MK1775], the “Z' of S-phase gammaH2AX difference (Z-score)” value is reported as inactive: -1.28. C=C(C)[C@@H]1CC=C(C(=O)O)CC1 [(-)-Perillic acid] + C=CCn1c(=O)c2cnc(Nc3ccc(N4CCN(C)CC4)cc3)nc2n1-c1cccc(C(C)(C)O)n1 [MK1775] was tested, and the “Z' of S-phase gammaH2AX difference (Z-score)” value was inactive: -0.18. In the case of COC(=O)[C@@H]1[C@H]2C[C@H]3c4[nH]c5ccccc5c4CCN3C[C@@H]2CC[C@@H]1O [Yohimbine hydrochloride] + C=CCn1c(=O)c2cnc(Nc3ccc(N4CCN(C)CC4)cc3)nc2n1-c1cccc(C(C)(C)O)n1 [MK1775], the “Z' of S-phase gammaH2AX difference (Z-score)” value is reported as inactive: -0.185. In the case of O=C1CCc2cc(OCCCCc3nnnn3C3CCCCC3)ccc2N1 [Cilostazol] + C=CCn1c(=O)c2cnc(Nc3ccc(N4CCN(C)CC4)cc3)nc2n1-c1cccc(C(C)(C)O)n1 [MK1775], the “Z' of S-phase gammaH2AX difference (Z-score)” value is reported as inactive: -0.575. With O=C(O)[C@H]1C[C@H](C(=O)O)N1 (relative stereo) [trans-Azetidine-2,4-dicarboxylic acid] + C=CCn1c(=O)c2cnc(Nc3ccc(N4CCN(C)CC4)cc3)nc2n1-c1cccc(C(C)(C)O)n1 [MK1775] the “Z' of S-phase gammaH2AX difference (Z-score)” value was inactive: -0.291. In the case of O=P(O)(O)C(Cl)(Cl)P(=O)(O)O [Clodronic acid] + C=CCn1c(=O)c2cnc(Nc3ccc(N4CCN(C)CC4)cc3)nc2n1-c1cccc(C(C)(C)O)n1 [MK1775], the “Z' of S-phase gammaH2AX difference (Z-score)” value is reported as inactive: -0.935. For N#C/C(=C/c1ccc(O)c(O)c1)C(=O)N1CCc2ccccc21 [Tyrphostin AG 528] + C=CCn1c(=O)c2cnc(Nc3ccc(N4CCN(C)CC4)cc3)nc2n1-c1cccc(C(C)(C)O)n1 [MK1775], the “Z' of S-phase gammaH2AX difference (Z-score)” value was inactive: 0.0541. For C[C@@H](NC(=O)/C(C#N)=C/c1ccc(O)c(O)c1)c1ccccc1 [Tyrphostin AG 527] + C=CCn1c(=O)c2cnc(Nc3ccc(N4CCN(C)CC4)cc3)nc2n1-c1cccc(C(C)(C)O)n1 [MK1775], the “Z' of S-phase gammaH2AX difference (Z-score)” value was inactive: -0.129. For Nc1ccccc1NC(=O)c1ccc(CNC(=O)OCc2cccnc2)cc1 [Entinostat (MS-275, SNDX-275)] + C=CCn1c(=O)c2cnc(Nc3ccc(N4CCN(C)CC4)cc3)nc2n1-c1cccc(C(C)(C)O)n1 [MK1775], the “Z' of S-phase gammaH2AX difference (Z-score)” value was inactive: -0.169. In the case of O=C1NCN(c2ccccc2)C12CCN(CCCC(c1ccc(F)cc1)c1ccc(F)cc1)CC2 [Fluspirilene] + C=CCn1c(=O)c2cnc(Nc3ccc(N4CCN(C)CC4)cc3)nc2n1-c1cccc(C(C)(C)O)n1 [MK1775], the “Z' of S-phase gammaH2AX difference (Z-score)” value is reported as inactive: -0.0704. With COc1cccc(OC)c1OCCNCC1COc2ccccc2O1 (centres undefined) [WB-4101 hydrochloride] + C=CCn1c(=O)c2cnc(Nc3ccc(N4CCN(C)CC4)cc3)nc2n1-c1cccc(C(C)(C)O)n1 [MK1775] the “Z' of S-phase gammaH2AX difference (Z-score)” value was inactive: 1.05. With O=[N+]([O-])c1cccc2c(Br)[nH]nc12 [3-Bromo-7-nitroindazole] + C=CCn1c(=O)c2cnc(Nc3ccc(N4CCN(C)CC4)cc3)nc2n1-c1cccc(C(C)(C)O)n1 [MK1775] the “Z' of S-phase gammaH2AX difference (Z-score)” value was inactive: -0.0635. O=C(O)CCC(=O)N1CCC[C@H]1C(=O)O [N-Succinyl-L-proline] + C=CCn1c(=O)c2cnc(Nc3ccc(N4CCN(C)CC4)cc3)nc2n1-c1cccc(C(C)(C)O)n1 [MK1775] was tested, and the “Z' of S-phase gammaH2AX difference (Z-score)” value was inactive: -1.36. With N=C(N)NC(=O)c1nc(Cl)c(N)nc1N [Amiloride hydrochloride] + C=CCn1c(=O)c2cnc(Nc3ccc(N4CCN(C)CC4)cc3)nc2n1-c1cccc(C(C)(C)O)n1 [MK1775] the “Z' of S-phase gammaH2AX difference (Z-score)” value was inactive: -0.1. With CN(C)CC[C@H](CSc1ccccc1)Nc1ccc(S(=O)(=O)NC(=O)c2ccc(N3CCN(Cc4ccccc4-c4ccc(Cl)cc4)CC3)cc2)cc1[N+](=O)[O-] + C=CCn1c(=O)c2cnc(Nc3ccc(N4CCN(C)CC4)cc3)nc2n1-c1cccc(C(C)(C)O)n1 [MK1775] the “Z' of S-phase gammaH2AX difference (Z-score)” value was inactive: 1.62. With CC(=O)SCC[N+](C)(C)C [Acetylthiocholine chloride] + C=CCn1c(=O)c2cnc(Nc3ccc(N4CCN(C)CC4)cc3)nc2n1-c1cccc(C(C)(C)O)n1 [MK1775] the “Z' of S-phase gammaH2AX difference (Z-score)” value was inactive: -0.575. In the case of CC(C)COC(=O)OCN1C(=O)CN(CCN2CC(=O)N(COC(=O)OCC(C)C)C(=O)C2)CC1=O [Sobuzoxane] + C=CCn1c(=O)c2cnc(Nc3ccc(N4CCN(C)CC4)cc3)nc2n1-c1cccc(C(C)(C)O)n1 [MK1775], the “Z' of S-phase gammaH2AX difference (Z-score)” value is reported as inactive: 1.82. In the case of NS(=O)(=O)c1cc2c(cc1Cl)N=CNS2(=O)=O [Chlorothiazide] + C=CCn1c(=O)c2cnc(Nc3ccc(N4CCN(C)CC4)cc3)nc2n1-c1cccc(C(C)(C)O)n1 [MK1775], the “Z' of S-phase gammaH2AX difference (Z-score)” value is reported as inactive: 1.09. CN[C@H](CC(C)C)C(=O)N[C@H]1C(=O)N[C@@H](CC(N)=O)C(=O)N[C@H]2C(=O)N[C@H]3C(=O)N[C@H](C(=O)N[C@H](C(=O)O)c4cc(O)cc(O)c4-c4cc3ccc4O)[C@H](O)c3ccc(c(Cl)c3)Oc3cc2cc(c3O[C@@H]2O[C@H](CO)[C@@H](O)[C@H](O)[C@H]2O[C@H]2C[C@](C)(N)[C@H](O)[C@H](C)O2)Oc2ccc(cc2Cl)[C@H]1O [Vancomycin hydrochloride from Streptomyces orientalis] + C=CCn1c(=O)c2cnc(Nc3ccc(N4CCN(C)CC4)cc3)nc2n1-c1cccc(C(C)(C)O)n1 [MK1775] was tested, and the “Z' of S-phase gammaH2AX difference (Z-score)” value was inactive: 0.352. With NC(=O)c1ncn([C@@H]2O[C@H](CO)[C@@H](O)[C@H]2O)n1 [Ribavirin] + C=CCn1c(=O)c2cnc(Nc3ccc(N4CCN(C)CC4)cc3)nc2n1-c1cccc(C(C)(C)O)n1 [MK1775] the “Z' of S-phase gammaH2AX difference (Z-score)” value was inactive: 1.47. For Cn1c(=O)c2[nH]c(C3CCCC3)nc2n(C)c1=O [8-Cyclopentyl-1,3-dimethylxanthine] + C=CCn1c(=O)c2cnc(Nc3ccc(N4CCN(C)CC4)cc3)nc2n1-c1cccc(C(C)(C)O)n1 [MK1775], the “Z' of S-phase gammaH2AX difference (Z-score)” value was inactive: 0.13. CC(C)COCC(CN(Cc1ccccc1)c1ccccc1)N1CCCC1 (centres undefined) [Bepridil hydrochloride] + C=CCn1c(=O)c2cnc(Nc3ccc(N4CCN(C)CC4)cc3)nc2n1-c1cccc(C(C)(C)O)n1 [MK1775] was tested, and the “Z' of S-phase gammaH2AX difference (Z-score)” value was inactive: -0.307. In the case of NS(=O)(=O)c1cc(C(=O)O)c(NCc2ccco2)cc1Cl [Furosemide] + C=CCn1c(=O)c2cnc(Nc3ccc(N4CCN(C)CC4)cc3)nc2n1-c1cccc(C(C)(C)O)n1 [MK1775], the “Z' of S-phase gammaH2AX difference (Z-score)” value is reported as inactive: -0.44. For NC(=S)c1ccc[n+]([C@@H]2O[C@@H](COP(=O)([O-])OP(=O)(O)OC[C@H]3O[C@@H](n4cnc5c(N)ncnc54)C(OP(=O)(O)O)[C@H]3O)C(O)C2O)c1 (some centres undefined) [Thio-NADP sodium] + C=CCn1c(=O)c2cnc(Nc3ccc(N4CCN(C)CC4)cc3)nc2n1-c1cccc(C(C)(C)O)n1 [MK1775], the “Z' of S-phase gammaH2AX difference (Z-score)” value was inactive: 0.393. In the case of O=C(O)C(=O)O.[NH-]C1CCCCC1[NH-].[Pt+2] (centres undefined) [Oxaliplatin (Eloxatin)] + C=CCn1c(=O)c2cnc(Nc3ccc(N4CCN(C)CC4)cc3)nc2n1-c1cccc(C(C)(C)O)n1 [MK1775], the “Z' of S-phase gammaH2AX difference (Z-score)” value is reported as inactive: -0.0983. In the case of CCc1cncnc1N1CCN(Cc2nc3ccc(C(F)(F)F)cc3[nH]2)CC1 + C=CCn1c(=O)c2cnc(Nc3ccc(N4CCN(C)CC4)cc3)nc2n1-c1cccc(C(C)(C)O)n1 [MK1775], the “Z' of S-phase gammaH2AX difference (Z-score)” value is reported as inactive: 0.205. NC(N)=NCCNS(=O)(=O)c1cccc2cnccc12 [HA-1004 hydrochloride] + C=CCn1c(=O)c2cnc(Nc3ccc(N4CCN(C)CC4)cc3)nc2n1-c1cccc(C(C)(C)O)n1 [MK1775] was tested, and the “Z' of S-phase gammaH2AX difference (Z-score)” value was inactive: 1.42. For CNC(=O)[C@H]1O[C@@H](n2cnc3c(NCc4cccc(I)c4)ncnc32)[C@H](O)[C@@H]1O + C=CCn1c(=O)c2cnc(Nc3ccc(N4CCN(C)CC4)cc3)nc2n1-c1cccc(C(C)(C)O)n1 [MK1775], the “Z' of S-phase gammaH2AX difference (Z-score)” value was inactive: 0.27. In the case of C=C[C@H]1CN2CC[C@H]1C[C@@H]2[C@@H](O)c1ccnc2ccc(OC)cc12 [Quinidine sulfate] + C=CCn1c(=O)c2cnc(Nc3ccc(N4CCN(C)CC4)cc3)nc2n1-c1cccc(C(C)(C)O)n1 [MK1775], the “Z' of S-phase gammaH2AX difference (Z-score)” value is reported as inactive: 0.184. With Cn1c(=O)c2[nH]cnc2n(C)c1=O [Aminophylline ethylenediamine] + C=CCn1c(=O)c2cnc(Nc3ccc(N4CCN(C)CC4)cc3)nc2n1-c1cccc(C(C)(C)O)n1 [MK1775] the “Z' of S-phase gammaH2AX difference (Z-score)” value was inactive: 0.307. CN(C)CCC=C1c2ccccc2CCc2ccccc21 [Amitriptyline hydrochloride] + C=CCn1c(=O)c2cnc(Nc3ccc(N4CCN(C)CC4)cc3)nc2n1-c1cccc(C(C)(C)O)n1 [MK1775] was tested, and the “Z' of S-phase gammaH2AX difference (Z-score)” value was inactive: 0.357. In the case of Cc1[nH]c(=O)c(C#N)cc1-c1ccncc1 [Milrinone] + C=CCn1c(=O)c2cnc(Nc3ccc(N4CCN(C)CC4)cc3)nc2n1-c1cccc(C(C)(C)O)n1 [MK1775], the “Z' of S-phase gammaH2AX difference (Z-score)” value is reported as inactive: 0.252. For CC(C)[C@H](CO)Nc1nc(Nc2cccc(Cl)c2)c2ncn(C(C)C)c2n1 [Purvalanol A] + C=CCn1c(=O)c2cnc(Nc3ccc(N4CCN(C)CC4)cc3)nc2n1-c1cccc(C(C)(C)O)n1 [MK1775], the “Z' of S-phase gammaH2AX difference (Z-score)” value was inactive: -3.02.
